# According to PMC7862700:
# The list shows a part of the results, in another mix than the full data. For some of these results: At the low end of the ranking, values are background and their order means little. The list shows a part of the results. For some of these results: The source does not settle which construct or isoform was used.
# Columns and labels:
# ETS1 = molecular target: T1, ETS1 (UniProt P14921); assay: DAPPL (digital affinity profiling via proximity ligation, sequencing); details: 10 mM Tris-HCl pH 7.5, 50 mM NaCl, 1 mM DTT, 4% glycerol, room temperature, 30 min; GST-TFs on glutathione beads, 16-mer random dsDNA library, 0.1% …; high values mean tight binding; double strand, one strand shown; scale: fold enrichment (6-mer frequency, TF over GST control)
# T1 sequence: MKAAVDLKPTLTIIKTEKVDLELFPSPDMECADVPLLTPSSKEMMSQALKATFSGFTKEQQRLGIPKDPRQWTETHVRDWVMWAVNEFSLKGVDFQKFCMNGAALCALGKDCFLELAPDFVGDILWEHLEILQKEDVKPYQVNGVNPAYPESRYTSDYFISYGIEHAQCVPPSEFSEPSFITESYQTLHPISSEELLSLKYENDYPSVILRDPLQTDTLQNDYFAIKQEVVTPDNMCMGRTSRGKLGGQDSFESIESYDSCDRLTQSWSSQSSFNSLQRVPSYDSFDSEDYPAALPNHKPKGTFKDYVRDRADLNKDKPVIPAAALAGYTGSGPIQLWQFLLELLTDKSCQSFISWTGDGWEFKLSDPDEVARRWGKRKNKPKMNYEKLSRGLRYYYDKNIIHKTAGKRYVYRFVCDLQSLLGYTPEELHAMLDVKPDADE
# SPDEF = molecular target: T2, SPDEF (UniProt O95238); assay: as above; details: 10 mM Tris-HCl pH 7.5, 50 mM NaCl, 1 mM DTT, 4% glycerol, room temperature, 30 min; GST-TFs on glutathione beads, 16-mer random dsDNA library, 0.1% …; high values mean tight binding; double strand, one strand shown; scale: fold enrichment (6-mer frequency, TF over GST control)
# T2 sequence: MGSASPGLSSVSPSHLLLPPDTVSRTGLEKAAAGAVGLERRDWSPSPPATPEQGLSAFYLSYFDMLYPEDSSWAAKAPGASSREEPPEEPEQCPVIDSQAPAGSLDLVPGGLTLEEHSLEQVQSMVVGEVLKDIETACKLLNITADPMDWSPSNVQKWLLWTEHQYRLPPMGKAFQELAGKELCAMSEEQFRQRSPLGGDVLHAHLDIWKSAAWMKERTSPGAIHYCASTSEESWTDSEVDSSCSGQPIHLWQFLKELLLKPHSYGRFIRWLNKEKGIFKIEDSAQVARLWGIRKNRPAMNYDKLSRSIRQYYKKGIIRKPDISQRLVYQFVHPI
Sequence,binding signal (ETS1),binding signal (SPDEF)
GTTGGT,0.84,0.935
ACCTGT,1.04,0.949
GCTTAA,0.969,1.06
GCCGCC,0.963,0.943
CTTAAG,1.15,1.04
GATTGC,0.984,0.973
CCGCAT,1.6,1.64
TGCATG,1.04,1.06
CATGAC,1.17,1.2
GCCTTA,1.23,1.12
CTTCTC,1.44,1.33
ACTCCG,1.48,1.59
CTCGAC,1.49,1.42
TTTATC,1.29,1.25
CTCTAT,1.2,1.16
TTGAGG,1.03,0.997
GTTAAA,1.07,0.928
GCTTGT,1.08,0.992

# 3 records drawn at random from the list so far, as already listed:
Sequence,binding signal (ETS1),binding signal (SPDEF)
GATTGC,0.984,0.973
TTGAGG,1.03,0.997
ACTCCG,1.48,1.59

# Continued.

Sequence,binding signal (ETS1),binding signal (SPDEF)
GTACGC,0.978,0.98
ACTACG,1.19,1.27
TGACCC,1.37,1.49
TCGAAC,0.954,0.885
AATGGA,0.989,0.952
CGTCCT,1.5,1.56
TAGCTT,1.29,1.08
GCCTAC,1.19,1.12
TTGCTC,1.24,1.2
CAAGCC,1.03,0.865
CTCACA,1.38,1.33
TAGCGC,0.982,0.898
CACTGA,1.07,0.936
CTACTA,1.36,1.28
TCACTG,1.25,1.16
AGTGGT,1.09,0.887
TTAGAT,1.12,1.08
